## Primary screen of a compound library

By UniProt entry, the sequences of proteins in these tests, tags left out.
UniProt E9BF75, entry or part of it: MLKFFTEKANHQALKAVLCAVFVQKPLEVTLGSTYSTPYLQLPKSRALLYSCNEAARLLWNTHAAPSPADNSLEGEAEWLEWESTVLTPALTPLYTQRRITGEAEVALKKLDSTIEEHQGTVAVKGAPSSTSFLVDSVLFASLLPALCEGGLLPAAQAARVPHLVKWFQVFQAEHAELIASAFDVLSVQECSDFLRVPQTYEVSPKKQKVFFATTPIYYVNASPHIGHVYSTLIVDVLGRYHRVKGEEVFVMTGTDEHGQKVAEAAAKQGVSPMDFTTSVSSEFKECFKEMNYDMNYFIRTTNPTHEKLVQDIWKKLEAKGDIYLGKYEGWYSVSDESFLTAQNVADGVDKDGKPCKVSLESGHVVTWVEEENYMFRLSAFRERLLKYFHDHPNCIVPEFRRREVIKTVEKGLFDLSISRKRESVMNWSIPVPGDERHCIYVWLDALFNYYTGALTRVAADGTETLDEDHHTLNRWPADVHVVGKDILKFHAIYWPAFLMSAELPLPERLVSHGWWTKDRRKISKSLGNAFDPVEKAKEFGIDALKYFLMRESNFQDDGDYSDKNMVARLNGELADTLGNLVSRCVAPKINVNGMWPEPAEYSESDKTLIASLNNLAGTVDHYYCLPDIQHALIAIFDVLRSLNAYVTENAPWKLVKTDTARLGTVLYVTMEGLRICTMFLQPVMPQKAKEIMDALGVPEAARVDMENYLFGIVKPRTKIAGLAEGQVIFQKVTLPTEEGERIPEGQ

Source: ChEMBL document CHEMBL3988442, “University of Dundee, Small-Polar-MMV Screening Library” (2021).

LdMetRS: 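Methionyl-tRNA synthetase (putative), Leishmania donovani (UniProt E9BF75). Primary screen of methionyl-tRNA synthetase; the read-out is not stated. The test concentration is not given. The values are filed as inhibition. About 68,000 compounds were tested under these conditions; 0.035% (about 24) showed 50% or more at least once.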
Mtb heat-shock: 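Assay on Mycobacterium tuberculosis, filed only as a heat shock assay from Cornell; the read-out is not stated. The concentration is filed as 10 mM, unlikely as a test dose, so the dose is not known. The record gives no direction; compounds that gave an IC50 in retests scored well above the rest, so higher reads as stronger inhibition. Of about 69,000 compounds tested this way, about 930 (1.4%) reached 50% or more in at least one test.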

All values are in %. The record does not define 0% and 100%; most values in the screen are far below 50% and negative numbers occur (in some assays of this library far below -100). Compounds were drawn at random from those tested, without regard to their results.

SMILES: COc1nccnc1N1CCN(Cc2cccc(C)c2)C(=O)C1
LdMetRS: 10.22
Mtb heat-shock: -8.869

SMILES: O=C(O)C(F)(F)F.[H][C@@]12CCCO[C@]1([H])[C@@H](OCC)CN2CC1CCOCC1
Mtb heat-shock: 43.93

SMILES: CN1CCOC(CNC(=O)Cc2coc(-c3ccccc3)n2)C1 (centres undefined)
LdMetRS: 23.89
Mtb heat-shock: -10.71

SMILES: O=C(NCC1CCCO1)c1cc(-c2cccnc2)c2cnccc2n1 (centres undefined)
LdMetRS: 10.48
Mtb heat-shock: -8.333

SMILES: [H][C@@]12CN(Cc3ccccc3Cl)CC[C@]1([H])N(C(C)=O)C[C@H]2c1ccsc1
Mtb heat-shock: 37.47

SMILES: CCOCC1CN(Cc2ccoc2)Cc2ncn(CC3CC3)c21 (centres undefined)
LdMetRS: 9.524
Mtb heat-shock: -9.212

SMILES: CC(C)OCc1ncn2c1CN(Cc1ccoc1)CCC2.O=C(O)C(F)(F)F
Mtb heat-shock: 4.842

SMILES: CCN(Cc1nc2c(cnn2C)c(=O)[nH]1)c1ccc(OC)c(OC)c1
LdMetRS: 9.028
Mtb heat-shock: -3.069

SMILES: Cc1nc(CN2CCC(CNC(=O)CCC3CCCC3)CC2)oc1C
LdMetRS: -2.135
Mtb heat-shock: 18.53

SMILES: COCCN(CC1CC1)c1nc(CCN)nc2sc(C)c(C)c12
LdMetRS: 9.375
Mtb heat-shock: 9.263

SMILES: CCn1ccnc1CN(C)c1nc(-c2ccc(Cl)cc2)nc2c1CNC2
LdMetRS: 23.92
Mtb heat-shock: 25.27

SMILES: Br.Cc1ccc(N(CC(=O)c2ccc(Br)cc2)C2=NCCCCC2)cc1
Mtb heat-shock: 103.6

SMILES: Cn1c(CN2CCN(c3cccnc3)CC2)cc2ccccc21
LdMetRS: 11.76
Mtb heat-shock: -0.7676

SMILES: CN(C)C(=O)c1nc2c(s1)CCCN2Cc1ccccc1
LdMetRS: 12.89
Mtb heat-shock: 1.043

SMILES: CSc1ccsc1C(=O)N1CCN(CC(C)(C)O)CC1
LdMetRS: 13.19
Mtb heat-shock: -5.123

SMILES: Cc1nc(Nc2ccc(Cl)cn2)sc1C(=O)NC(C)C
LdMetRS: -2.338
Mtb heat-shock: 35.2

SMILES: CCCC(C)C(=O)Nc1ccc(OC)nc1N1CCN(C(C)=O)CC1 (centres undefined)
LdMetRS: 14.29
Mtb heat-shock: -19.27

SMILES: CN1[C@@H](c2ccccc2)[C@@H](C(=O)NCc2ccncc2)C[C@@]1(C)C(=O)O
LdMetRS: 9.964
Mtb heat-shock: -4.15

SMILES: CCN1CCOC(CNCc2ccccc2OCc2cccnc2)C1 (centres undefined)
LdMetRS: 22.54
Mtb heat-shock: -44.32

SMILES: COC(=O)CCCn1ccnc1-c1ccc(OC)c(F)c1F
LdMetRS: 7.258
Mtb heat-shock: -6.199

SMILES: O=C(C1CCOC1)N1CCc2ncc(CNc3ccccn3)n2CC1 (centres undefined)
LdMetRS: 9.013
Mtb heat-shock: -1.439

SMILES: Cn1ccnc1CN1CCCN(C(=O)CC(C2CC2)C2CC2)CC1
LdMetRS: 6.017
Mtb heat-shock: 4.003

SMILES: COC(=O)c1cc(C(=O)N2CCc3ccc(F)cc3C2C)ccn1 (centres undefined)
LdMetRS: 7.317
Mtb heat-shock: -18.84

SMILES: CC(C(=O)O)n1nc(C(F)(F)F)c(Br)c1C1CC1 (centres undefined)
LdMetRS: 10.48
Mtb heat-shock: -18.59

SMILES: O=C(CCNC(=O)c1cnccn1)Nc1ncc[nH]1
LdMetRS: 16.06
Mtb heat-shock: -21.42

SMILES: CCOC(=O)N1CCC2(CCCN(C3CCOCC3)C2=O)C1 (centres undefined)
LdMetRS: 15.95
Mtb heat-shock: -1.113

SMILES: NC(=O)c1cc(C2CCCN(CCOCC(F)(F)F)C2)n[nH]1 (centres undefined)
LdMetRS: -1.227
Mtb heat-shock: -12.79

SMILES: Cc1[nH]c(=O)[nH]c(=O)c1CC(=O)N1CCCN(CC2CC2)C(C(C)C)C1 (centres undefined)
LdMetRS: 2.542
Mtb heat-shock: 2.073

SMILES: CCOC(=O)CNC(=O)NCc1cc(C)n(-c2ccccc2OC)c1C
LdMetRS: 10.5
Mtb heat-shock: 4.261

SMILES: Cc1nc(N2CCCC2)nc2c1CCN(Cc1ccoc1)CC2
LdMetRS: 14.78

SMILES: Fc1ccc(-c2ccc(CNC3CCc4ncnn4C3)o2)cc1 (centres undefined)
LdMetRS: 14.29
Mtb heat-shock: -20.78

SMILES: COc1ccc(-c2nc(CNCCn3cccn3)cs2)cc1
LdMetRS: 8.877
Mtb heat-shock: 106.9

SMILES: O=C1CC[C@@H](C(=O)N2CCc3[nH]nc(COc4cccc(Cl)c4)c3C2)N1
LdMetRS: 6.634
Mtb heat-shock: 0.7634

SMILES: CCOCCC(=O)N1CCCN(Cc2csc(CC)n2)CC1
LdMetRS: 22.22
Mtb heat-shock: 20.68

SMILES: O=C(Nc1cnccn1)[C@@H]1C[C@H]2OCC[C@H]2N(Cc2ccsc2)C1
LdMetRS: 8.497

SMILES: CCn1cnc(NC(=O)N2CCC(c3ccc(Cl)cc3)C2)n1 (centres undefined)
LdMetRS: 4.178
Mtb heat-shock: -15.02

SMILES: Cc1ccc2c(c1)C1(CCN(C(=O)C3CC3)CC1)CC2N1CCOCC1.O=C(O)C(F)(F)F (centres undefined)
Mtb heat-shock: -23.42

SMILES: O=C1CCCN1CCN1CC[C@@]2(O)CCN(c3ncccn3)C[C@H]2C1
LdMetRS: 0.9804

The last 4 entries again:

{"smiles": "O=C(Nc1cnccn1)[C@@H]1C[C@H]2OCC[C@H]2N(Cc2ccsc2)C1", "LdMetRS": 8.497}
{"smiles": "CCn1cnc(NC(=O)N2CCC(c3ccc(Cl)cc3)C2)n1", "stereo": "centres undefined", "LdMetRS": 4.178, "Mtb heat-shock": -15.02}
{"smiles": "Cc1ccc2c(c1)C1(CCN(C(=O)C3CC3)CC1)CC2N1CCOCC1.O=C(O)C(F)(F)F", "stereo": "centres undefined", "Mtb heat-shock": -23.42}
{"smiles": "O=C1CCCN1CCN1CC[C@@]2(O)CCN(c3ncccn3)C[C@H]2C1", "LdMetRS": 0.9804}